Results reported in paper PMC4114980.

Tests used:
[1] = biological target: T1, Chro-421 (601–926), truncated COOH-terminal domain of Chromator, GST-fusion protein (Drosophila) (UniProt Q86BS3); assay: far-Western, overlay or dot blot; GST fusion proteins fractionated by SDS-PAGE and blotted to nitrocellulose; incubated overnight at room temperature with 5 µg/ml bovine tubulin polymerized with 1 mM GTP and 20 µM taxol in PEMF buffer; bound microtubules detected with anti-tubulin antibody; both purified
T1 sequence: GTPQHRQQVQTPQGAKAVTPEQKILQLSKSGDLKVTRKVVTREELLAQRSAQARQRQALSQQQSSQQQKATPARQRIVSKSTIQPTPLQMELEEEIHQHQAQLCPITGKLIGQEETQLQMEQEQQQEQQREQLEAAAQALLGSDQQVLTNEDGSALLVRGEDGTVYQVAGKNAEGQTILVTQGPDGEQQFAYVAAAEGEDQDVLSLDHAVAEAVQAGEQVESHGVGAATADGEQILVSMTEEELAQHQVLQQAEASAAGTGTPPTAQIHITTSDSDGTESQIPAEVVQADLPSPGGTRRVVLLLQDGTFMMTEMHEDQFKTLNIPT

[2] = biological target: T2, Chro-CTD (329–926), COOH-terminal domain of Chromator, GST-fusion protein (Drosophila) (UniProt Q86BS3); assay: pull-down; GST fusion proteins or GST on glutathione agarose beads, incubated with purified bovine tubulin in ip buffer with 20 µM taxol and 2 mM GTP (microtubules) overnight at 4°C; blot with tubulin antibody; both purified
T2 sequence: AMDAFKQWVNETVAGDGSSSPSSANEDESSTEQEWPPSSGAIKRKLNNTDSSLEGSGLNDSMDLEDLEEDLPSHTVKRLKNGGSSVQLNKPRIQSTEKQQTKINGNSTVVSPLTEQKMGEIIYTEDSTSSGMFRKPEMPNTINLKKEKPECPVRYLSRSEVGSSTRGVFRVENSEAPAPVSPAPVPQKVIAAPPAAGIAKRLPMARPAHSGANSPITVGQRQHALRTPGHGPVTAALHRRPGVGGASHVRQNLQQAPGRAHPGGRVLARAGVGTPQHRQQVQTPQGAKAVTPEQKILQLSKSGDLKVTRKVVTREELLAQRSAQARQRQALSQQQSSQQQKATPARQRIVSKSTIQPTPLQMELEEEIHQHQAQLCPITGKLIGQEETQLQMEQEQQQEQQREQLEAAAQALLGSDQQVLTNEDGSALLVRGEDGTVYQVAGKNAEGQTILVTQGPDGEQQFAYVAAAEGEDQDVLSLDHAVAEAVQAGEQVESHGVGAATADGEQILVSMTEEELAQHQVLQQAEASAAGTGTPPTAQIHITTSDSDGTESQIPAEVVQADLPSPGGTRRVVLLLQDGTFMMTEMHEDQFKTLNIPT

[3] = biological target: T1, Chro-421 (601–926), truncated COOH-terminal domain of Chromator, GST-fusion protein (Drosophila); assay: as above
[4] = biological target: T3, Chro-M (329-600), truncated COOH-terminal domain of Chromator, GST-fusion protein (Drosophila) (UniProt Q86BS3); assay: as above
T3 sequence: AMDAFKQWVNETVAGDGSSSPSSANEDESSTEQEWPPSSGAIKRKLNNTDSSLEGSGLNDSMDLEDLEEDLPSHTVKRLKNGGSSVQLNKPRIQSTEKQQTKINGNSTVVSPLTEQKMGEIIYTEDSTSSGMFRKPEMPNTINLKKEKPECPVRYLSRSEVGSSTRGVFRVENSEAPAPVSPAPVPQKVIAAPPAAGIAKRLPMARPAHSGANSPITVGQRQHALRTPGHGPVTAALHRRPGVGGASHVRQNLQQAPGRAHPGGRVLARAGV

[5] = biological target: T4, Chro-FL (1–926), full-length Chromator GST-fusion protein (Drosophila) (UniProt Q86BS3); assay: as above
T4 sequence: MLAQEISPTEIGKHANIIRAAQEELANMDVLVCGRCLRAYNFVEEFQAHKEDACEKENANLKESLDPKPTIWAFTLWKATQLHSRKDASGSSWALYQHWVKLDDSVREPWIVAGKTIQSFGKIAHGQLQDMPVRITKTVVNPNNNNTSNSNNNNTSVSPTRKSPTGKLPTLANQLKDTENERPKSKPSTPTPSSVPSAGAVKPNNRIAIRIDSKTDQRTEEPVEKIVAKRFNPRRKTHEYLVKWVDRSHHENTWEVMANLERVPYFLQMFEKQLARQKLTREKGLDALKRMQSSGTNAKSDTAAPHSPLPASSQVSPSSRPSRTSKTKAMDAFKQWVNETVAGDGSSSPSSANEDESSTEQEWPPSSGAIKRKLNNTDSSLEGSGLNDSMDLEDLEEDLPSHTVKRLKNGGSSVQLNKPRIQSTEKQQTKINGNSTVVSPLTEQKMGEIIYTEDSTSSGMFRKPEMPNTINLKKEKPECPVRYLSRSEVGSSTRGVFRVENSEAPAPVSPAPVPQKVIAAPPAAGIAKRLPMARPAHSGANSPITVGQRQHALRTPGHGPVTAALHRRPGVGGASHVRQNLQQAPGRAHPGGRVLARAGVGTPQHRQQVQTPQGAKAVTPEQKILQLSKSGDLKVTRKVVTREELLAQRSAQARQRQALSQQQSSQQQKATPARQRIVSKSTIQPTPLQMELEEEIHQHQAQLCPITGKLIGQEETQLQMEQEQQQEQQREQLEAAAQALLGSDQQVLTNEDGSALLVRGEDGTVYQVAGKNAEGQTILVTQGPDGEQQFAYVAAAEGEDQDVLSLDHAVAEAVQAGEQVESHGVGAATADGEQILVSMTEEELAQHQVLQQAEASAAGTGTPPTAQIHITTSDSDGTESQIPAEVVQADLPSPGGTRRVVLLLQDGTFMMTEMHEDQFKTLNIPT

[6] = biological target: T5, Chro-M1 (329–460), GST-fusion protein (Drosophila) (UniProt Q86BS3); assay: as above
T5 sequence: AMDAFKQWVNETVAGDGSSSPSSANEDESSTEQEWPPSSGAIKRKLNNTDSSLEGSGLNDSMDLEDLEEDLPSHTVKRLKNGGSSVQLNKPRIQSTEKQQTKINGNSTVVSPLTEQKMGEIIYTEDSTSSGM

purified bovine brain tubulin (complex)
binding [1]: no binding (tested: 5 µg/ml tubulin) | binding [2]: binds | binding [3]: no binding | binding [4]: binds | binding [5]: binds | binding [6]: no binding

Results are given in words; binding and its absence hold for the method and conditions named. For part of these data: Binding calls can cover weak binding; strength is not graded here. Tags and fused reporters may be left off the sequences shown.
